# No constants are given. Whether binding was seen depends on the method and setting. Binding seen in cells or lysates may run through a third protein. For some of these results: A result given as binding can be weak or reduced; the word gives no strength.
# B1: peroxiredoxin type II (PrxII), endogenous (enzyme, UniProt P32119 1-198)
# chain: MASGNARIGKPAPDFKATAVVDGAFKEVKLSDYKGKYVVLFFYPLDFTFVCPTEIIAFSNRAEDFRKLGCEVLGVSVDSQFTHLAWINTPRKEGGLGPLNIPLLADVTRRLSEDYGVLKTDEGIAYRGLFIIDGKGVLRQITVNDLPVGRSVDEALRLVQAFQYTDEHGEVCPAGWKPGSDTIKPNVDDSKEYFSKHN
# Columns and labels:
# [1] = target: tankyrase (TNKS), endogenous (human (endogenous in HT29, SW480, RKO)); assay: co-IP; lysates of APC-mutant HT29 and SW480 cells, IP of endogenous TNKS with anti-TNKS antibody, immunoblot
# [2] = target: tankyrase (TNKS), endogenous (human (endogenous in HT29, SW480, RKO)); assay: proximity ligation; in situ PLA (DuoLink) of endogenous TNKS and PrxII in RKO cells
# [3] = target: tankyrase (TNKS), endogenous (human (endogenous in HT29, SW480, RKO)); assay: co-IP; lysate of APC-competent RKO cells, IP of endogenous TNKS with anti-TNKS antibody, immunoblot
# [4] = target: tankyrase (TNKS), endogenous (human (endogenous in HT29, SW480, RKO)); assay: proximity ligation; in situ PLA (DuoLink) of endogenous TNKS and PrxII in HT29 and SW480 cells; PrxII-depleted cells as negative control
binder,measurement,setting,value
B1,binding,[1],binds
same,binding,[2],no binding (only in RKO cells)
same,binding,[3],no binding (only in APC-competent RKO cells)
same,binding,[4],binds

# From publication PMC5489516
